# Source: PubChem BioAssay AID248 (DTP/NCI, 2004)
# The list shows only some results of the screen, not a fair sample: it is rich in T/C values a quarter to a half above the control, in often repeated tests (any T/C) and in doses without a T/C. Other doses and runs of a compound stand elsewhere. T/C gives the treated animals as a percentage of the vehicle group. Some doses have a count of surviving animals in place of a T/C: the source holds a T/C of zero for them, seemingly a mark for toxic or unscored doses. Some doses without a T/C left all or most animals alive at the check, yet need not have been tolerated: the source hardly ever lists a survival T/C far under the control, and the zero likely stands for such cases as well. Survivors were counted at the toxicity check, usually on the fifth day, unless a day is given; later deaths do not show. Schedules are NCI's codes, read here as Q, the interval in days (D) or hours (H), X, the number of doses. Some schedules carry Z or #; the key to these is not given. Some structures stand for samples that the source files as different forms (salt, stereo form or complex); doses refer to the form tested. Some doses were run more than once; the values are given in rising order. Where survival is the endpoint, the PubChem record calls one and a half times the control and up active, and a quarter to a half above the control has no call in these data; cut-offs in other NCI protocols can differ. Some T/C values carry the count of animals alive at the toxicity check (mostly the fifth day); without a count, all were alive then.
# System: L1210 leukemia ip in BDF1 mice, survival T/C
# Assay: NCI In Vivo Anticancer Drug Screen. Data for tumor model L1210 Leukemia (intraperitoneal) in B6D2F1 (BDF1) mice
# Details: T/C endpoint: mean survival time, higher T/C = longer survival
# [1] = dose: 10.0 mg/kg/injection, schedule: Q01DX001 (ip), vehicle: saline
# [2] = dose: 100.0 mg/kg/injection, schedule: Q01DX001 (ip), vehicle: saline
# [3] = dose: 400.0 mg/kg/injection, schedule: Q01DX001 (ip), vehicle: saline
# [4] = dose: 400.0 mg/kg/injection, schedule: Q04DX003 (ip), vehicle: acetone
# [5] = dose: 200.0 mg/kg/injection, schedule: Q04DX003 (ip), vehicle: saline
# [6] = dose: 400.0 mg/kg/injection, schedule: Q04DX003 (ip), vehicle: saline
# [7] = dose: 400.0 mg/kg/injection, schedule: Q04DX003 (ip), vehicle: saline with Tween-80
# [8] = dose: 400.0 mg/kg/injection, schedule: Q01DX009 (ip), vehicle: Klucel (hydroxypropylcellulose) (HPC)
# [9] = dose: 200.0 mg/kg/injection, schedule: Q04DX003 (ip), vehicle: saline with Tween-80
# [10] = dose: 400.0 mg/kg/injection, schedule: Q04DX002 (ip), vehicle: saline
structure (smiles),measurement,setting,value
CS(=O)(=O)OCCN(CCOS(C)(=O)=O)c1ccc(N=O)c(Cl)c1,T/C,"dose: 0.33 mg/kg/injection, schedule: Q01DX001 (ip), vehicle: saline",126 % of control
same,T/C,"dose: 0.38 mg/kg/injection, schedule: Q01DX015 (ip), vehicle: saline",131 % of control
same,T/C,"dose: 0.5 mg/kg/injection, schedule: Q01DX001 (ip), vehicle: saline",138 % of control
same,T/C,"dose: 0.5 mg/kg/injection, schedule: Q01DX015 (ip), vehicle: saline",128 % of control
same,T/C,"dose: 0.75 mg/kg/injection, schedule: Q01DX001 (ip), vehicle: saline",132 % of control
same,T/C,"dose: 1.0 mg/kg/injection, schedule: Q01DX001 (ip), vehicle: saline",127 % of control
same,T/C,"dose: 2.0 mg/kg/injection, schedule: Q01DX001 (ip), vehicle: saline",127 % of control
same,survivor count,"dose: 4.0 mg/kg/injection, schedule: Q01DX015 (ip), vehicle: saline",6 of 6
same,survivor count,"dose: 4.5 mg/kg/injection, schedule: Q01DX001 (ip), vehicle: saline",6 of 6
same,survivor count,"dose: 6.7 mg/kg/injection, schedule: Q01DX001 (ip), vehicle: saline",0 of 6 and 1 of 6
same,survivor count,"dose: 8.0 mg/kg/injection, schedule: Q01DX001 (ip), vehicle: saline",0 of 4
same,T/C,[1],127 % of control
same,survivor count,[1],0 of 6
same,survivor count,"dose: 15.0 mg/kg/injection, schedule: Q01DX001 (ip), vehicle: saline",0 of 6 and 1 of 6
same,survivor count,"dose: 20.0 mg/kg/injection, schedule: Q01DX001 (ip), vehicle: saline",0 of 4
same,survivor count,"dose: 40.0 mg/kg/injection, schedule: Q01DX001 (ip), vehicle: saline",0 of 4
same,survivor count,"dose: 50.0 mg/kg/injection, schedule: Q01DX001 (ip), vehicle: saline",0 of 6
same,survivor count,"dose: 80.0 mg/kg/injection, schedule: Q01DX001 (ip), vehicle: saline",0 of 4
same,survivor count,[2],0 of 6
same,survivor count,"dose: 200.0 mg/kg/injection, schedule: Q01DX001 (ip), vehicle: saline",0 of 6
same,survivor count,[3],0 of 6
CCOC(=O)c1nc(SC)n(Cc2ccccc2)c1C(=O)OCC,T/C,"dose: 100.0 mg/kg/injection, schedule: Q04DX002 (ip), vehicle: saline with Tween-80","98, 101, 105, 125 % of control"
same,T/C,"dose: 200.0 mg/kg/injection, schedule: Q04DX002 (ip), vehicle: saline with Tween-80","90, 101, 102, 106 % of control"
CC(=O)OC1=CC2(OC(C)=O)CCC1C1C(=O)OC(=O)C12 (configuration not stated),survivor count,[4],1 of 6
COc1cc2ccc3cc[n+](C)cc3c2cc1OC,T/C,"dose: 100.0 mg/kg/injection, schedule: Q01DX009 (ip), vehicle: saline",129 % of control [4 of 6 alive]
same,survivor count,"dose: 200.0 mg/kg/injection, schedule: Q01DX009 (ip), vehicle: saline",2 of 6
same,survivor count,[5],6 of 6
same,survivor count,"dose: 400.0 mg/kg/injection, schedule: Q01DX009 (ip), vehicle: saline",0 of 6
same,survivor count,[6],3 of 6
CCN(CC)CCC(=O)Nc1cccc2c1C(=O)c1c(c(O)c3ccccc3c1O)C2=O,survivor count,"dose: 200.0 mg/kg/injection, schedule: Q01DX009 (ip), vehicle: saline with Tween-80",6 of 6
same,survivor count,[7],3 of 6
N#CCC(c1ccccc1)C(C#N)c1ccccc1 (configuration not stated),survivor count,"dose: 300.0 mg/kg/injection, schedule: Q01DX001 (ip), vehicle: carboxymethylcellulose (CMC)",3 of 6
CCCCCCCCNC(=O)c1ccc([N+](=O)[O-])s1,survivor count,"dose: 50.0 mg/kg/injection, schedule: Q01DX005 (ip), vehicle: saline",2 of 4
CCC(/C=N/N=C(N)N)=N\N=C(N)N,survivor count,"dose: 120.0 mg/kg/injection, schedule: Q01DX Z (ip), vehicle: saline",1 of 6
same,survivor count,"dose: 240.0 mg/kg/injection, schedule: Q01DX Z (ip), vehicle: saline",0 of 6
same,survivor count,"dose: 480.0 mg/kg/injection, schedule: Q01DX Z (ip), vehicle: saline",0 of 6
same,survivor count,"dose: 960.0 mg/kg/injection, schedule: Q01DX Z (oral), vehicle: saline",1 of 6
NNC(=O)c1ccc(Cl)cc1Nc1ccccc1,survivor count,[8],1 of 6
COc1cccc2c1C(=O)CC2,survivor count,[9],3 of 6
same,survivor count,[7],0 of 6
Nc1nc(Cl)c(Br)c(=O)[nH]1,survivor count,"dose: 100.0 mg/kg/injection, schedule: Q01DX Z (ip), vehicle: methylcellulose (MC)",3 of 6
same,survivor count,"dose: 200.0 mg/kg/injection, schedule: Q01DX Z (ip), vehicle: methylcellulose (MC)",0 of 6
CN1CCC2(CC1)C(=O)N(Cc1ccccc1)C(=O)C2c1ccccc1 (configuration not stated),survivor count,"dose: 50.0 mg/kg/injection, schedule: Q04DX002 (ip), vehicle: saline",3 of 3
same,survivor count,"dose: 200.0 mg/kg/injection, schedule: Q04DX002 (ip), vehicle: saline",0 of 3
same,survivor count,"dose: 400.0 mg/kg/injection, schedule: Q04DX002 (ip), vehicle: Klucel (hydroxypropylcellulose) (HPC)",0 of 3
same,survivor count,[10],0 of 3
CC(Br)C(=O)NCC(=O)O (configuration not stated),survivor count,"dose: 400.0 mg/kg/injection, schedule: Q01DX009 (ip), vehicle: saline with Tween-80",1 of 6
c1ccc2c(c1)C[N+](=C1CCCCC1)Cc1ccccc1-2,survivor count,[5],0 of 6
same,survivor count,[6],0 of 6
O=C1C(Cl)=C(Cl)C2(Cl)C1(Cl)C1(Cl)C(=O)C(Cl)=C(Cl)C12Cl (configuration not stated),survivor count,"dose: 200.0 mg/kg/injection, schedule: Q01DX009 (ip), vehicle: Klucel (hydroxypropylcellulose) (HPC)",3 of 6
same,survivor count,[8],2 of 6
O=C1CCCC(=O)C1C(C[N+](=O)[O-])c1ccccc1 (configuration not stated),survivor count,"dose: 200.0 mg/kg/injection, schedule: Q04DX003 (ip), vehicle: Klucel (hydroxypropylcellulose) (HPC)",6 of 6
same,survivor count,"dose: 400.0 mg/kg/injection, schedule: Q04DX003 (ip), vehicle: Klucel (hydroxypropylcellulose) (HPC)",0 of 6
BrCC(Br)=C(Br)Br,survivor count,"dose: 25.0 mg/kg/injection, schedule: Q04DX003 (ip), vehicle: Klucel (hydroxypropylcellulose) (HPC)",1 of 6
same,survivor count,"dose: 50.0 mg/kg/injection, schedule: Q04DX003 (ip), vehicle: Klucel (hydroxypropylcellulose) (HPC)",0 of 6
same,survivor count,"dose: 100.0 mg/kg/injection, schedule: Q01DX001 (ip), vehicle: Klucel (hydroxypropylcellulose) (HPC)",1 of 6
same,survivor count,"dose: 100.0 mg/kg/injection, schedule: Q04DX003 (ip), vehicle: Klucel (hydroxypropylcellulose) (HPC)",0 of 6
same,survivor count,"dose: 200.0 mg/kg/injection, schedule: Q01DX001 (ip), vehicle: Klucel (hydroxypropylcellulose) (HPC)",1 of 6
same,survivor count,"dose: 400.0 mg/kg/injection, schedule: Q01DX001 (ip), vehicle: Klucel (hydroxypropylcellulose) (HPC)",0 of 6
NC(Cc1ccccc1)C(=O)NCCCl (configuration not stated),survivor count,"dose: 100.0 mg/kg/injection, schedule: Q01DX Z (ip), vehicle: saline",6 of 6
COc1ccc(-n2cnc3c(=O)[nH]c(N)nc32)cc1,survivor count,[2],6 of 6
same,survivor count,[3],6 of 6
O=C(Nc1ccc([N+](=O)[O-])cc1)c1cc(Cl)c2ccccc2c1O,survivor count,[8],0 of 6
C=CCc1ccc(OC(=O)Nc2cccc(C)c2)c(OC)c1,survivor count,"dose: 300.0 mg/kg/injection, schedule: Q01DX009 (ip), vehicle: saline with Tween-80",3 of 6
same,survivor count,"dose: 400.0 mg/kg/injection, schedule: Q04DX002 (ip), vehicle: saline with Tween-80",3 of 3
CCOCN1CCCC1,survivor count,[9],4 of 6
same,survivor count,"dose: 400.0 mg/kg/injection, schedule: Q01DX001 (ip), vehicle: saline with Tween-80",0 of 6
NC(N)=N/N=C/c1ccccc1 (tested in a mixture with another compound),survivor count,"dose: 100.0 mg/kg/injection, schedule: Q04DX003 (ip), vehicle: acetone",4 of 6
same,survivor count,"dose: 200.0 mg/kg/injection, schedule: Q04DX003 (ip), vehicle: acetone",0 of 6
same,survivor count,[4],0 of 6
CC1(N)CC2CCC1C2 (configuration not stated),survivor count,[6],2 of 6
Cc1cnc(NCCCC(N)C(=O)O)nc1 (configuration not stated),survivor count,[10],3 of 3
